# Experimental data taken from paper PMC9700324, “Selection-free endogenous tagging of cell lines by bicistronic co-expression of the surface antigen NGFR” (MethodsX, 2022).
# No constants are given. Whether binding was seen depends on the method and setting. Binding seen in cells or lysates may run through a third protein. Some binding calls cover weakened binding; strength is not graded here. Tags and fused reporters may be left off the sequences shown.
# T1: nLAP-tagged WDR59 (WD Repeat Domain 59), endogenously tagged (human (endogenous in HEK293T)) (UniProt Q6PJI9)
# T1 sequence: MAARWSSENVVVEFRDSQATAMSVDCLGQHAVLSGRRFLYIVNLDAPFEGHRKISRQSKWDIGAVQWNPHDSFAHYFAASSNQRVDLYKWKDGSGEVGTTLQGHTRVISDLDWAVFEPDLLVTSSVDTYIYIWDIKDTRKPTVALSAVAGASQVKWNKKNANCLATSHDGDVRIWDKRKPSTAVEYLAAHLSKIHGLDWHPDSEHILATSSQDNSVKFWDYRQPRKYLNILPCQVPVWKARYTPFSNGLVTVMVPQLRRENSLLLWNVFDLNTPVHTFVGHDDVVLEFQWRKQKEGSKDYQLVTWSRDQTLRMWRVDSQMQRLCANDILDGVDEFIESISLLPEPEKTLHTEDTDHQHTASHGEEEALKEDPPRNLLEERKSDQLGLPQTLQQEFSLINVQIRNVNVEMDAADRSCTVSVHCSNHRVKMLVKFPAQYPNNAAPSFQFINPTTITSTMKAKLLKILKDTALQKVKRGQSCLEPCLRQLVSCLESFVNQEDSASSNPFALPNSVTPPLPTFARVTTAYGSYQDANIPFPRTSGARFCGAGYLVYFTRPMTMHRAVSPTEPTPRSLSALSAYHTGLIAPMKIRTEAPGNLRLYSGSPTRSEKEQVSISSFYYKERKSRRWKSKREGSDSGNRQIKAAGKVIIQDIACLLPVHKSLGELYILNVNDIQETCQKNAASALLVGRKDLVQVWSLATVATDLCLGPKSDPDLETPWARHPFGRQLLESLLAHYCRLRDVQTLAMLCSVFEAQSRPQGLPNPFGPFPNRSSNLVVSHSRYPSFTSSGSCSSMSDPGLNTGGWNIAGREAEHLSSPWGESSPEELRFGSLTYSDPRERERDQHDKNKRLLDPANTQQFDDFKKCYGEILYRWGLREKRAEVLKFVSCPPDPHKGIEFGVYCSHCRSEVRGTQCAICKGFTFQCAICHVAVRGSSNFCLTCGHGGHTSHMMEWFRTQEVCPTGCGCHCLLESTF
# T2: nLAP-tagged WDR59 (WD Repeat Domain 59), endogenously tagged (human (endogenous in HEK293T)), Q6PJI9
# T2 chain: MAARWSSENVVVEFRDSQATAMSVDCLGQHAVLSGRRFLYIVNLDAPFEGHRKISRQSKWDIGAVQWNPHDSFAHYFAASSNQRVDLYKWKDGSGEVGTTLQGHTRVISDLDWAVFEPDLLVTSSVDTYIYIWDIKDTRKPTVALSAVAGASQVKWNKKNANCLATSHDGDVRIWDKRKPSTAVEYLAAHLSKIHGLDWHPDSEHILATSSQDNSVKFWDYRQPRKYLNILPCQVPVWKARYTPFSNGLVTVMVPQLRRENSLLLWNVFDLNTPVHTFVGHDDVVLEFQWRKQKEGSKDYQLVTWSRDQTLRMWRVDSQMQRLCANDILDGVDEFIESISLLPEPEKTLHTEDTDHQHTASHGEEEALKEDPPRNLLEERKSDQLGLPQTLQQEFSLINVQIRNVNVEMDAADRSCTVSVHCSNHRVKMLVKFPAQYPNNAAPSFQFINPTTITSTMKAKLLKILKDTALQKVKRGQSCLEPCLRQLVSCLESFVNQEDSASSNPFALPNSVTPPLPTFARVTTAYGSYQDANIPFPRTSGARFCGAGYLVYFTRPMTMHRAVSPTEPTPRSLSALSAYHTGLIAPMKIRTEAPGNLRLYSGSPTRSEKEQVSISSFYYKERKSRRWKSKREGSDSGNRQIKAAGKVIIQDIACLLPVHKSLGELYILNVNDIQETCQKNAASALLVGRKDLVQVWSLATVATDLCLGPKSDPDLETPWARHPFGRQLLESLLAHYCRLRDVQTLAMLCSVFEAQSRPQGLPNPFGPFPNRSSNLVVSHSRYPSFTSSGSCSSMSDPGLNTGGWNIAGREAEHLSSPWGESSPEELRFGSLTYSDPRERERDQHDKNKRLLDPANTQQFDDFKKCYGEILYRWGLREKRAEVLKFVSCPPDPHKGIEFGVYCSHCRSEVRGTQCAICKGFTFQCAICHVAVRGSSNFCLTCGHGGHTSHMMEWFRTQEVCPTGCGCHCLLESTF
# Legend:
# [1] = molecular target: T1, nLAP-tagged WDR59 (WD Repeat Domain 59), endogenously tagged (human (endogenous in HEK293T)); assay: co-IP; nLAP-tagged WDR59 precipitated from 1,000-3,000 µg lysate protein with GFP-Trap magnetic agarose beads (GFP-specific nanobodies) overnight at 4°C; CoIP buffer (10 mM Tris-HCl pH 8, 150 mM NaCl, 5 mM EDTA, 0.5% Triton X-100, 60 mM octyl-β-D-glucopyranoside); 5 washes; partners detected by Western blot; cells untreated, amino acid-starved 16 h with or without 60 min stimulation with all amino acids or leucine, or leucine-starved with or without 60 min leucine
# [2] = molecular target: T2, nLAP-tagged WDR59 (WD Repeat Domain …); assay: co-IP; nLAP-tagged WDR59 precipitated from 1,000-3,000 µg lysate protein with GFP-Trap magnetic agarose beads (GFP-specific nanobodies) overnight at 4°C; CoIP buffer (10 mM Tris-HCl pH 8, 150 mM NaCl, 5 mM EDTA, 0.5% Triton X-100, 60 mM octyl-β-D-glucopyranoside); 5 washes; partners detected by Western blot; cells untreated, amino acid-starved 16 h with or without 60 min stimulation with all amino acids or leucine, …; settings: remark: other sources report otherwise
binding [1],binding [2],Binder
binds,,"MIOS (Meiosis Regulator For Oocyte Development) (natural protein, human (endogenous in HEK293T), UniProt Q9NXC5 1-875, looked up, MIOS (Meiosis Regulator For Oocyte Development), subunit of GATOR2, human, endogenous; also called GATOR2 subunit MIOS; source: endogenous, HEK (Lenti-X 293T) spCas9+ WDR59-NGFRETD-nLAP clone D5 lysate) MSGTKPDILWAPHHVDRFVVCDSELSLYHVESTVNSELKAGSLRLSEDSAATLLSINSDTPYMKCVAWYLNYDPECLLAVGQANGRVVLTSLGQDHNSKFKDLIGKEFVPKHARQCNTLAWNPLDSNWLAAGLDKHRADFSVLIWDICSKYTPDIVPMEKVKLSAGETETTLLVTKPLYELGQNDACLSLCWLPRDQKLLLAGMHRNLAIFDLRNTSQKMFVNTKAVQGVTVDPYFHDRVASFYEGQVAIWDLRKFEKPVLTLTEQPKPLTKVAWCPTRTGLLATLTRDSNIIRLYDMQHTPTPIGDETEPTIIERSVQPCDNYIASFAWHPTSQNRMIVVTPNRTMSDFTVFERISLAWSPITSLMWACGRHLYECTEEENDNSLEKDIATKMRLRALSRYGLDTEQVWRNHILAGNEDPQLKSLWYTLHFMKQYTEDMDQKSPGNKGSLVYAGIKSIVKSSLGMVESSRHNWSGLDKQSDIQNLNEERILALQLCGWIKKGTDVDVGPFLNSLVQEGEWERAAAVALFNLDIRRAIQILNEGASSEKGDLNLNVVAMALSGYTDEKNSLWREMCSTLRLQLNNPYLCVMFAFLTSETGSYDGVLYENKVAVRDRVAFACKFLSDTQLNRYIEKLTNEMKEAGNLEGILLTGLTKDGVDLMESYVDRTGDVQTASYCMLQGSPLDVLKDERVQYWIENYRNLLDAWRFWHKRAEFDIHRSKLDPSSKPLAQVFVSCNFCGKSISYSCSAVPHQGRGFSQYGVSGSPTKSKVTSCPGCRKPLPRCALCLINMGTPVSSCPGGTKSDEKVDLSKDKKLAQFNNWFTWCHNCRHGGHAGHMLSWFRDHAECPVSACTCKCMQLDTTGNLVPAETVQP"
binds,,"Sestrin-2 (SESN2) (natural protein, human (endogenous in HEK293T), UniProt P58004 1-480, looked up, Sestrin-2 (SESN2), leucine-sensing protein, human, endogenous; source: endogenous, HEK (Lenti-X 293T) spCas9+ WDR59-NGFRETD-nLAP clone D5 lysate) MIVADSECRAELKDYLRFAPGGVGDSGPGEEQRESRARRGPRGPSAFIPVEEVLREGAESLEQHLGLEALMSSGRVDNLAVVMGLHPDYFTSFWRLHYLLLHTDGPLASSWRHYIAIMAAARHQCSYLVGSHMAEFLQTGGDPEWLLGLHRAPEKLRKLSEINKLLAHRPWLITKEHIQALLKTGEHTWSLAELIQALVLLTHCHSLSSFVFGCGILPEGDADGSPAPQAPTPPSEQSSPPSRDPLNNSGGFESARDVEALMERMQQLQESLLRDEGTSQEEMESRFELEKSESLLVTPSADILEPSPHPDMLCFVEDPTFGYEDFTRRGAQAPPTFRAQDYTWEDHGYSLIQRLYPEGGQLLDEKFQAAYSLTYNTIAMHSGVDTSVLRRAIWNYIHCVFGIRYDDYDYGEVNQLLERNLKVYIKTVACYPEKTTRRMYNLFWRHFRHSEKVHVNLLLLEARMQAALLYALRAITRYMT"
,binds,"NPRL3 (Nitrogen Permease Regulator 3-Like Protein), Q12980 1-569 (natural protein) MRDNTSPISVILVSSGSRGNKLLFRYPFQRSQEHPASQTSKPRSRYAASNTGDHADEQDGDSRFSDVILATILATKSEMCGQKFELKIDNVRFVGHPTLLQHALGQISKTDPSPKREAPTMILFNVVFALRANADPSVINCLHNLSRRIATVLQHEERRCQYLTREAKLILALQDEVSAMADGNEGPQSPFHHILPKCKLARDLKEAYDSLCTSGVVRLHINSWLEVSFCLPHKIHYAASSLIPPEAIERSLKAIRPYHALLLLSDEKSLLGELPIDCSPALVRVIKTTSAVKNLQQLAQDADLALLQVFQLAAHLVYWGKAIIIYPLCENNVYMLSPNASVCLYSPLAEQFSHQFPSHDLPSVLAKFSLPVSLSEFRNPLAPAVQETQLIQMVVWMLQRRLLIQLHTYVCLMASPSEEEPRPREDDVPFTARVGGRSLSTPNALSFGSPTSSDDMTLTSPSMDNSSAELLPSGDSPLNQRMTENLLASLSEHERAAILSVPAAQNPEDLRMFARLLHYFRGRHHLEEIMYNENTRRSQLLMLFDKFRSVLVVTTHEDPVIAVFQALLP"
